# This is one part of the list. No stated cut-off is given here; in the data, active = 1.25 or more and inactive = the rest. Single values are uncertain, as repeats are few or missing.
# Test system: Kcc2-LUC knock-in mouse primary cortical neurons (Kcc2 promoter reporter)
# Assay: Kcc2 promoter-driven luciferase activity relative to vehicle control (fold of vehicle (ratio)); higher = stronger Kcc2 promoter activation (Kcc2 expression enhancer)
# Details: 100 nM; 48 h
row,SMILES,Kcc2 promoter-driven luciferase activity
1,COc1ccc(C[C@H]2NC[C@H](O)[C@H]2OC(C)=O)cc1 [Anisomycin],active: 1.76
2,C=C1C(=O)O[C@@H]2C[C@@H](C)[C@@H]3C=CC(=O)[C@@]3(C)[C@@H](O)[C@H]12 [Helenalin],inactive: 1.13
3,"Cc1cc(N(CC(C)Br)CC(C)Br)ccc1N=Nc1ccccc1C(=O)O (stereo not given) [Azobenzene, 4-bis(2-bromopropyl)amino-2'-carboxy-2-methyl-]",inactive: 1.24
4,CCCCCn1cc2c3c(cccc31)C1C=C(C)CN(C)[C@@H]1C2.Cc1ccc(C(=O)OC(C(=O)O)C(OC(=O)c2ccc(C)cc2)C(=O)O)cc1 (stereo not given),inactive: 1.02
5,CC1C=CC=CCCC=CC=CC=CC=CC(OC2OC(C)C(O)C(N)C2O)CC2OC(O)(CC(O)C(O)CCC(O)CC(O)CC(O)CC(=O)OC(C)C(C)C1O)CC(O)C2C(=O)O (stereo not given) [Nystatin],active: 1.34
6,C/C=C1\C[C@@H](C)[C@](O)(CO)C(=O)OCC2=CCN3CC[C@@H](OC1=O)[C@@H]23 [Retrorsine],inactive: 0.894
7,C=C1C(=O)O[C@H]2C[C@@]3(C)O[C@@H]3CC/C(C)=C/[C@@H](OC(C)=O)[C@H]12 [Pyrethrosin],inactive: 0.58
8,Oc1cccc2cccnc12 [Oxyquinoline],active: 1.25
9,C[C@]12C(=O)C=CCC1=CC[C@@H]1[C@@H]2CC[C@]2(O)C(=O)O[C@@]3(C)[C@H]4C[C@]5(C)[C@@H](CO[C@@]16O[C@@]32[C@H]5C6=O)C(=O)O4 [Physalin B],inactive: 1.22
10,CO[C@H]1[C@@H](O)[C@@H](C)O[C@H](O[C@H]2[C@H](Oc3cccc4c(O)c5c(=O)oc6ccc(C)c7c(=O)oc(c34)c5c67)O[C@H](C)[C@H](O)[C@@H]2O)[C@@H]1O,inactive: 1.11
11,CC1CCC2C(C)C3C(CC4C5CC=C6CC(OC7OC(CO)C(O)C(OC8OC(CO)C(O)C(O)C8O)C7OC7OC(C)C(O)C(O)C7O)CCC6(C)C5CCC43C)N2C1 (stereo not given),active: 1.37
12,CC(=O)c1c(O)c(C)c(O)c(Cc2c(O)c3c(c(C(=O)/C=C/c4ccccc4)c2O)OC(C)(C)C=C3)c1O [Rottlerin],inactive: 0.57
13,[O-][n+]1ccccc1[S-].[O-][n+]1ccccc1[S-].[Zn+2] [ZINC;1-oxidopyridin-1-ium-2-thiolate],inactive: 1.15
14,COc1ccn(C)c(=O)c1C#N [Ricinine],inactive: 0.56
15,C=C1C(C)C2C(Cc3ccccc3)NC(=O)C23C(OC(C)=O)/C=C/C(C)(O)CC(C)C/C=C/C3C1O (stereo not given) [Kodocytochalasin 1],inactive: 0.927
16,COc1cc2c(cc1OC)C13CCN4C=C5CCOC6CC(=O)N2C1C6C5CC43 (stereo not given) [Neobrucine],inactive: 0.57
17,CC(/C=N/N=C(N)N)=N\N=C(N)N [Methylglyoxal Bis(guanylhydrazone)],inactive: 1.05
18,"CC(=O)[O][Hg][c]1c(C)c(C)c(C)c(C)c1C [Mercury, (acetyloxy)(pentamethylphenyl)-]",inactive: 0.49
19,C[n+]1ccc(-c2cc[n+](C)cc2)cc1 [Gramoxone],inactive: 0.26
20,CC(=O)O[C@H]1C[C@H](O[C@H]2[C@@H](O)C[C@H](O[C@H]3[C@@H](O)C[C@H](O[C@H]4CC[C@@]5(C)[C@H](CC[C@@H]6[C@@H]5CC[C@]5(C)[C@@H](C7=CC(=O)OC7)CC[C@]65O)C4)O[C@@H]3C)O[C@@H]2C)OC(C)[C@H]1O[C@@H]1O[C@H](CO)[C@@H](O)[C@H](O)[C@H]1O (stereo not given in full) [Lanatoside A],inactive: 1.03

# In another format: entries from further up
row	SMILES	Kcc2 promoter-driven luciferase activity
3	Cc1cc(N(CC(C)Br)CC(C)Br)ccc1N=Nc1ccccc1C(=O)O (stereo not given) [Azobenzene, 4-bis(2-bromopropyl)amino-2'-carboxy-2-methyl-]	inactive: 1.24
18	CC(=O)[O][Hg][c]1c(C)c(C)c(C)c(C)c1C [Mercury, (acetyloxy)(pentamethylphenyl)-]	inactive: 0.49

# The list continues.

row,SMILES,Kcc2 promoter-driven luciferase activity
1,C1COCCN1.S=C(S)N1CCOCC1 [Morpholine-N-dithiocarbamate],inactive: 1.17
2,"CC1=CC23C(COC(=O)C24CO4)C(C(=O)O)=CC3C1C.NCc1ccccc1 (stereo not given) [AT 116, benzylamine salt]",inactive: 0.95
3,NC(N)=NOCCC(N)C(=O)O (stereo in doubt) [L-Canavanine Sulphate],inactive: 1.02
4,CCOC(=O)[C@H](CC(C)C)NC(=O)[C@H](Cc1ccc(N(CCCl)CCCl)cc1)NC(C)=O [Asaley],inactive: 0.77
5,[Cl][Cd][Cl] [Cadmium Chloride],inactive: 1.15
6,O=C1C=C2C(=CCOC2O)O1 (stereo not given) [Patulin],active: 1.63
7,C[C@]12CC[C@H](O)C[C@H]1CC[C@@H]1[C@@H]2CC[C@]2(C)[C@@H](C3=CC(=O)OC3)CC[C@]12O [Digitoxigenin],inactive: 0.38
8,CC1CCC2(O)C3(C)CC4(O)OC2(C1O)C1(O)C3(O)C(OC(=O)c2ccc[nH]2)C(O)(C(C)C)C41C (stereo not given) [Ryanodine],inactive: 1.02
9,N#Cc1cn([C@@H]2O[C@H](CO)[C@@H](O)[C@H]2O)c2ncnc(N)c12 [Naritheracin],active: 5.53
10,O=C([CH-]C(=O)C(F)(F)F)c1ccccc1.O=C([CH-]C(=O)C(F)(F)F)c1ccccc1.O=C([CH-]C(=O)C(F)(F)F)c1ccccc1.O=C([CH-]C(=O)C(F)(F)F)c1ccccc1.[Eu+3].c1ccncc1 [Piperidinium europium benzoyl trifluoroacetonate],inactive: 0.25
11,N.N.[Cl][Pt][Cl] [Cisplatin],inactive: 1.09
12,CO[C@H]1C[C@H](O[C@H]2CC[C@]3(C=O)[C@H]4CC[C@]5(C)[C@@H](C6=CC(=O)OC6)CC[C@]5(O)[C@@H]4CC[C@]3(O)C2)O[C@H](C)[C@H]1O [Cymarin],active: 1.26
13,COC1=C(C)C(=O)C2=C(C1=O)[C@@H](CO)N1[C@H]3[C@H]4[C@@H](C[C@H]([C@H]1C#N)N4C)[C@@H]1OCCN1[C@@H]23 [Cyanocycline A],inactive: 0.463
14,COc1cccc2c1cc([N+](=O)[O-])c1c(C(=O)O)cc3c(c12)OCO3 [Aristolochic Acid],inactive: 0.68
15,C[C@@H]1O[C@@H](O[C@@H]2C=C3CC[C@@H]4[C@H](CC[C@]5(C)[C@@H](c6ccc(=O)oc6)CC[C@]45O)[C@@]3(C)CC2)[C@H](O)[C@H](O)[C@H]1O [Proscillaridin A],inactive: 0.824
16,CC(=O)[O][Hg].c1ccc2c(c1)ccc1ccccc12,inactive: 0.5
17,C=C1C(=O)O[C@@H]2C[C@@H](C)[C@@H]3C=CC(=O)[C@@]3(C)[C@@H](O)[C@H]12,active: 1.44
18,CC(C)C(NC(=O)C(C(C)C)N(C)C)C(=O)N(C)C(C(=O)N1CCCC1C(=O)N1CCCC1C(=O)NCc1ccccc1)C(C)C (stereo not given),inactive: 0.83
19,CC[C@@]12CCCN3CC[C@]4(c5cccc(OC)c5N(C(C)=O)[C@@H]4CC1)[C@H]32 [Aspidospermine],inactive: 0.755
20,C/C=C(/C)C(=O)O[C@H]1CC[C@@]2(C)[C@@H]3CC[C@H]4[C@]5(O)C[C@H](O)[C@@]6(O)[C@@H](CN7C[C@@H](C)CC[C@H]7[C@@]6(C)O)[C@]5(O)C[C@]42O[C@]13O [Veratrine Hemisulfate],active: 1.3
